In patent US10501562B2, “Co-initiator and co-monomer for use in preparing polymer related compositions, methods of manufacture, and methods of use” (University of Kansas, priority 2015, dated 2019):

Test: Cumulative amine co-initiator (and photoinitiator component) release from dentin adhesives in ethanol, HPLC
Format: physicochemical
Conditions: for release of CQ and DPIHP: HPLC, ethanol; for co-initiator released from 1 gram polymer samples: 60 days in ethanol, co-initiator 0.5 wt. %, released mass divided by polymer mass; for release of co-initiator from the polymer: in ethanol, based on the HPLC results; for release rate of co-initiator (time of release): polymers aged in ethanol

Compound | release of CQ and DPIHP | co-initiator released from 1 gram polymer samples | release of co-initiator from the polymer | release rate of co-initiator (time of release) | cumulative amine co-initiator release (after 60 days in ethanol at 25 C, co-initiator at 0.5 wt. %) | cumulative amine co-initiator release (in ethanol at 25 C, co-initiator at 1.75 wt. %)
CC12CCC(C(=O)C1=O)C2(C)C (centres unmarked) [CQ, camphorquinone] | could not be detected | – | – | – | – | –
C=C(C)C(=O)OCCN(C)C [DMAEMA, 2-(dimethylamino) ethyl methacrylate] | – | 0.56 ± 0.15 mg | 11.2% | ~20 days | – | –
C=C(C)C(=O)OCCNC(=O)OC(C)CN(CC(C)OC(=O)NCCOC(=O)C(=C)C)CC(C)OC(=O)NCCOC(=O)C(=C)C (centres unmarked) [TUMA, 8-(2-(((2-(methacryloyloxy)ethyl)carbamoyl)oxy)propyl)-6,10-dimethyl-4,12-dioxo-5,11-dioxa-3,8,13-triazapentadecane-1,15-diyl bis(2-methylacrylate)] | – | – | no TUMA release or it was below the detectable limit | – | no TUMA was detected | no TUMA was detected
CCOC(=O)c1ccc(N(C)C)cc1 [EDMAB, Ethyl-4-(dimethylamino) benzoate] | – | 2.68 ± 0.21 mg | 53.6% | ~40 days | – | –
F[P-](F)(F)(F)(F)F.c1ccc([I+]c2ccccc2)cc1 [DPIHP, diphenyliodonium hexafluorophosphate] | could not be detected | – | – | – | – | –
